Protein sequences, listed by entry. Tags and fused reporters are not part of them. Lines headed by an entry give the natural chain unless they say otherwise; changes in a name come on top. Residues count along the entry.
UniProt P18242: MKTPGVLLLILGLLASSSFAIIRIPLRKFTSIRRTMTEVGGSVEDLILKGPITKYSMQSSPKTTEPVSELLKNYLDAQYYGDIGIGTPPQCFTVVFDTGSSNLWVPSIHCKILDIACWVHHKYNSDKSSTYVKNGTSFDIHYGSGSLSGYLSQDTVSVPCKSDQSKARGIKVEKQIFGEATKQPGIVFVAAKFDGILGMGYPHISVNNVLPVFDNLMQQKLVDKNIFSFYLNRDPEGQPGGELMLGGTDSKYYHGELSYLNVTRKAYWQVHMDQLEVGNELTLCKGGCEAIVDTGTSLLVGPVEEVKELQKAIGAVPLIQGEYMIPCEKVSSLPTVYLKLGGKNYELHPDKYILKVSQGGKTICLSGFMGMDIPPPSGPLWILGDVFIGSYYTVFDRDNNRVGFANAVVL
UniProt P68372: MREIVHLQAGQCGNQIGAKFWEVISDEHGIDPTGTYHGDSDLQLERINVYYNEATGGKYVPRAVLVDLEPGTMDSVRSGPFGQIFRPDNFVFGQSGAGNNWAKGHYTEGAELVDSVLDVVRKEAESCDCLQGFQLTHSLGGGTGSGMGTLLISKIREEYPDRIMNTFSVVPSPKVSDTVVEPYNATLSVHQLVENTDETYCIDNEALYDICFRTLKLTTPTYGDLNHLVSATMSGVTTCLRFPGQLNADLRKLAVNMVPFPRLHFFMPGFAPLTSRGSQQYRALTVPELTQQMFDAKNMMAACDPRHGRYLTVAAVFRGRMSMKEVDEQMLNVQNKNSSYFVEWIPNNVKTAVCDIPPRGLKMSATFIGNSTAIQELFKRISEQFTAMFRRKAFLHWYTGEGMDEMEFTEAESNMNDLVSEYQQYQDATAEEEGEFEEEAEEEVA
UniProt O88569: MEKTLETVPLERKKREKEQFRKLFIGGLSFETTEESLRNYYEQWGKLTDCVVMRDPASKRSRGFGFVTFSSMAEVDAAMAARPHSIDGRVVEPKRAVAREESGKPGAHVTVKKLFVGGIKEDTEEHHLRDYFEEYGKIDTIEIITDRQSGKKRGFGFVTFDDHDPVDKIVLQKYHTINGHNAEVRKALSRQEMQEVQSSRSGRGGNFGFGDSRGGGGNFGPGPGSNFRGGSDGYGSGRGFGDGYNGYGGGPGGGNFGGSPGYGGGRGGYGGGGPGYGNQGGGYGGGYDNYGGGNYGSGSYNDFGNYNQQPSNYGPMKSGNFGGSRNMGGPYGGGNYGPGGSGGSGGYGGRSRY
UniProt P23979, residues 24-489: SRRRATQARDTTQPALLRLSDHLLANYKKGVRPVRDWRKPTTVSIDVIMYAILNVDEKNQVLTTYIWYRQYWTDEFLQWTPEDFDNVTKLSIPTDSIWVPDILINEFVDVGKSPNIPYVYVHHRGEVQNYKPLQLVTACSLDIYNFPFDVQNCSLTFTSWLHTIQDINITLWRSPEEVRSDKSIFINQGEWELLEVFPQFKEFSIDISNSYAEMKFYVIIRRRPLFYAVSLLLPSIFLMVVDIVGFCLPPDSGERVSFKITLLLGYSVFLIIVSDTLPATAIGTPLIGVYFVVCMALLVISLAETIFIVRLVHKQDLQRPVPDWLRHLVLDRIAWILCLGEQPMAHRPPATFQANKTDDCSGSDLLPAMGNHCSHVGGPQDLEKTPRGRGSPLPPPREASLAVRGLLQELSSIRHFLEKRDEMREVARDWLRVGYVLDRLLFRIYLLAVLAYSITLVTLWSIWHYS
UniProt P19157: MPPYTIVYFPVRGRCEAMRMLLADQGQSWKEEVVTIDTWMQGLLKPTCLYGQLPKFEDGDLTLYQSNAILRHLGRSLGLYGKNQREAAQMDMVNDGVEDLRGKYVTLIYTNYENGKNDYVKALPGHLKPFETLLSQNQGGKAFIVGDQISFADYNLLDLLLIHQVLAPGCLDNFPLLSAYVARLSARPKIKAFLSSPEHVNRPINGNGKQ
UniProt P68368: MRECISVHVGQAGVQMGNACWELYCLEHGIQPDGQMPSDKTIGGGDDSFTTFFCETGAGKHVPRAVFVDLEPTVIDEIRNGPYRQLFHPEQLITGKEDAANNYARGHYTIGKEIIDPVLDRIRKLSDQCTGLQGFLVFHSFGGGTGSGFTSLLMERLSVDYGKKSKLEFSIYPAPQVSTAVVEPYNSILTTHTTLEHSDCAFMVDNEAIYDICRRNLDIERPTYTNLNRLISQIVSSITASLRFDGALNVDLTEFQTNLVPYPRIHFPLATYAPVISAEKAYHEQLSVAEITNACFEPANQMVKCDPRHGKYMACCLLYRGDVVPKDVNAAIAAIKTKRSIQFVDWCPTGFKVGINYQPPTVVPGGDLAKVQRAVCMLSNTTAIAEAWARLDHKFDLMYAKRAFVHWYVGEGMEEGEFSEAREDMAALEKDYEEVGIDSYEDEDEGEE
UniProt Q61937: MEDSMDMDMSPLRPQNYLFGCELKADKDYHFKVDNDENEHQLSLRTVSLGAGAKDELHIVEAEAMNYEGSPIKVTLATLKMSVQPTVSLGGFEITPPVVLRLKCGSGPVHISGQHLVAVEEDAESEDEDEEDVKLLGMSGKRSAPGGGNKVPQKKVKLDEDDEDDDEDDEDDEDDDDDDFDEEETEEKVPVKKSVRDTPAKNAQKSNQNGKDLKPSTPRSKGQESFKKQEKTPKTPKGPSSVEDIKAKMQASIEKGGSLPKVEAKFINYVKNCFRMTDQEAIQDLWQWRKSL
UniProt P54923: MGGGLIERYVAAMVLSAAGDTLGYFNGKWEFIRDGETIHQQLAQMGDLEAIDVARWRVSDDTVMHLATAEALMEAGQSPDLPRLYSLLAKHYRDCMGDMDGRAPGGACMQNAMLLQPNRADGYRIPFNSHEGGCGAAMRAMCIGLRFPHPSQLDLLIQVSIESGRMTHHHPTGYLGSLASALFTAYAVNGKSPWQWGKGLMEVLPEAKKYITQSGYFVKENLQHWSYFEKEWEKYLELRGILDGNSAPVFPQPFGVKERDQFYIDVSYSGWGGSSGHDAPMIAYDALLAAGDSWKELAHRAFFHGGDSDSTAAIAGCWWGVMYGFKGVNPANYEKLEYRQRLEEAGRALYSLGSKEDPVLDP
UniProt P63038, residues 27-573: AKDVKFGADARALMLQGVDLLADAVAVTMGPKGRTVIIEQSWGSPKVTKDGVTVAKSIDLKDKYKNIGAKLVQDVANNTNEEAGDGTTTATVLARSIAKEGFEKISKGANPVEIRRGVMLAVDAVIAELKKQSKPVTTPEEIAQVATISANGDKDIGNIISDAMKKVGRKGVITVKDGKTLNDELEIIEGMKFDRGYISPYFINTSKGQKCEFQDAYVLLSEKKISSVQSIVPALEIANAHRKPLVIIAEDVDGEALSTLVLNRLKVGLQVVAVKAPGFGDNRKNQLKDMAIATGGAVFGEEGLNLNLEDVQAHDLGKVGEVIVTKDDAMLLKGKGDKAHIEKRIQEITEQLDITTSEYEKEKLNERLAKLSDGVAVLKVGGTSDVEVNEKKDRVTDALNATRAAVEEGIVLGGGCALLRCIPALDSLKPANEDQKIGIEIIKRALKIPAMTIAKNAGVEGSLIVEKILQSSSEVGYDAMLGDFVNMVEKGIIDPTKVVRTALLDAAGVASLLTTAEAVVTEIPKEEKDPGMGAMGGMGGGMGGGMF
UniProt P20029, residues 20-655: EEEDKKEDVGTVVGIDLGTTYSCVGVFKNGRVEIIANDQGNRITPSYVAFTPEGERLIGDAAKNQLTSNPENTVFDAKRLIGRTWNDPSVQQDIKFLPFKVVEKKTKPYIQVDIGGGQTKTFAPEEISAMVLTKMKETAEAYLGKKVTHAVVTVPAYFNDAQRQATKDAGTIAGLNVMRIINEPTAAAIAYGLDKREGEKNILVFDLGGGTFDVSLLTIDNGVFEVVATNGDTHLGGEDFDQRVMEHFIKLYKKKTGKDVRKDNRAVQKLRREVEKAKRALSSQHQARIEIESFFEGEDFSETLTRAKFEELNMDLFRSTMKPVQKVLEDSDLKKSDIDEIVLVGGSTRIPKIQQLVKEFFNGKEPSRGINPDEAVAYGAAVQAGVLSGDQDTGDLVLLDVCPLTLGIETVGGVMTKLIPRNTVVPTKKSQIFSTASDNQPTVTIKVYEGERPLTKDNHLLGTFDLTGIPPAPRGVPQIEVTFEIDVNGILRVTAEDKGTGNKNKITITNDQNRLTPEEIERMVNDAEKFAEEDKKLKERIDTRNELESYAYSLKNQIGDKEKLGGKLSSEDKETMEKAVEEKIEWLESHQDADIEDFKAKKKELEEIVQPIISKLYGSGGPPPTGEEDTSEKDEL

In article PMC5215799:

biological target: HA-tagged gp96 (UniProt P08113); assay: affinity purification with mass spectrometry; RIPA lysate (500 μg) of preB leukemia cells stably expressing HA-tagged gp96, precleared with normal IgG on protein G beads, then anti-HA (clone HA-7) on protein G beads 3 hours at 4°C; eluate on SDS-PAGE, LC-MS/MS

Row | binding | Molecule
1 | binds | Erp44 (protein, UniProt Q9D1Q6 30-406) EIASLDSENIDEILNNADVALVNFYADWCRFSQMLHPIFEEASDVIKEEYPDKNQVVFARVDCDQHSDIAQRYRISKYPTLKLFRNGMMMKREYRGQRSVKALADYIRQQKSNPVHEIQSLDEVTNLDRSKRNIIGYFEQKDSENYRVFERVASILHDDCAFLSAFGDLSKPERYNGDNVIYKPPGRSAPDMVYLGSMTNFDVTYNWIQDKCVPLVREITFENGEELTEEGLPFLILFHMKDDTESLEIFQNEVARQLISEKGTINFLHADCDKFRHPLLHIQKTPADCPVIAIDSFRHMYVFGDFKDVLIPGKLKQFVFDLHSGKLHREFHHGPDPTDTAPGEQDQDVASSPPESSFQKLAPSEYRYTLLRDRDEL
2 | binds | CP (protein, UniProt Q61147 20-1061) RDKHYFIGITEAVWDYASGTEEKKLISVDTEQSNFYLQNGPDRIGRKYKKALYFEYTDGTFSKTIDKPAWLGFLGPVIKAEVEDKVYVHLKNLASRIYTFHAHGVTYTKEYEGAVYPDNTTDFQRADDKVLPGQQYVYVLHANEPSPGEGDSNCVTRIYHSHVDAPKDIASGLIGPLILCKKGSLYKEKEKNIDQEFVLMFSVVDENLSWYLEDNIKTFCSEPEKVDKDNEDFQESNRMYSINGYTFGSLPGLSMCAADRVKWYLFGMGNEVDVHSAFFHGQALTSRNYQTDIINLFPATLIDAYMVAQNPGVWMLSCQNLNHLKAGLQAFFQVRDCNKPSPEDNIQDRHVRHYYIAAEEVIWNYAPSGTDIFTGENLTALESDSRVFFEQGATRIGGSYKKMAYREYTDGSFTNRKQRGPDEEHLGILGPVIWAEVGDTIKVTFHNKGQHPLSIQPMGVSFTAENEGTYYGPPGRSSQQAASHVAPKETFTYEWTVPKEMGPTYADPVCLSKMYYSGVDPTKDIFTGLIGPMKICKKGSLLADGRQKDVDKEFYLFPTVFDENESLLLDDNIRMFTTAPDQVDKEDEDFQESNKMHSMNGFMYGNQPGLNMCLGESIVWYLFSAGNEADVHGIYFSGNTYLSKGERRDTANLFPHKSLTLLMNPDTKGTFDVECLTTDHYTGGMKQKYTVNQCQRQFEDFTVYLGERTYYVAAVEVEWDYSPSRAWEKELHHLQEQNVSNVFLDKEEFFIGSKYKKVVYRQFTDSSFREQVKRRAEDEHLGILGPPIHANVGDKVKVVFKNMATRPYSIHAHGVKTESSTVVPTLPGEVRTYTWQIPERSGAGREDSACIPWAYYSTVDRVKDLYSGLIGPLIVCRKSYVKVFSPKKKMEFFLLFLVFDENESWYLDDNIKTYSEHPEKVNKDNEEFLESNKMHAINGKMFGNLQGLTMHVKDEVNWYVMGMGNEIDLHTVHFHGHSFQYKHRGVYSSDVFDLFPGTYQTLEMFPQTPGTWLLHCHVTDHVHAGMATTYTVLPVEQETKSG
3 | binds | CERLD2 (protein, UniProt Q9CYA0 23-350) SRKPTMCQRCRTLVDKFNQGMANTARKNFGGGNTAWEEKTLSKYEFSEIRLLEIMEGLCDSSDFECNQLLEQQEEQLEAWWQTLKKEHPNLFEWFCVHTLKACCLPGTYGPDCQECQGGSERPCSGNGYCSGDGSRQGDGSCQCHTGYKGPLCIDCTDGFFSLQRNETHSICSACDESCKTCSGPSNKDCIQCEVGWARVEDACVDVDECAAETSPCSDGQYCENVNGSYTCEDCDSTCVGCTGKGPANCKECIAGYTKESGQCTDIDECSLEEKACKRKNENCYNVPGSFVCVCPEGFEETEDACVQTAEGKVTEENPTQPPSREDL
4 | binds | Eef1d (protein, UniProt P57776 1-281) MATNFLAHEKIWFDKFKYDDAERRFYEQMNGPVTSGSRQENGASVILRDIARARENIQKSLAGSSGPGASSGPGGDHSELIVRITSLEVENQNLRGVVQDLQQAISKLEARLSSLEKSSPTPRATAPQTQHVSPMRQVEPPTKKGATPAEDDEDKDIDLFGSDEEEEDKEAARLREERLRQYAEKKAKKPTLVAKSSILLDVKPWDDETDMAQLETCVRSIQLDGLVWGASKLVPVGYGIRKLQIQCVVEDDKVGTDLLEEEITKFEEHVQSVDIAAFDKI
5 | binds | Ero1I (protein, UniProt Q8R180 24-464) EERRPETAAQRCFCQVSGYLDDCTCDVETIDKFNNYRLFPRLQKLLESDYFRYYKVNLKKPCPFWNDINQCGRRDCAVKPCHSDEVPDGIKSASYKYSEEANRIEECEQAERLGAVDESLSEETQKAVLQWTKHDDSSDSFCEIDDIQSPDAEYVDLLLNPERYTGYKGPDAWRIWSVIYEENCFKPQTIQRPLASGRGKSKENTFYNWLEGLCVEKRAFYRLISGLHASINVHLSARYLLQDTWLEKKWGHNVTEFQQRFDGILTEGEGPRRLRNLYFLYLIELRALSKVLPFFERPDFQLFTGNKVQDAENKALLLEILHEIKSFPLHFDENSFFAGDKNEAHKLKEDFRLHFRNISRIMDCVGCFKCRLWGKLQTQGLGTALKILFSEKLIANMPESGPSYEFQLTRQEIVSLFNAFGRISTSVRELENFRHLLQNVH
6 | binds | Dnajc10 (protein, UniProt Q9DC23 33-793) DQNFYSLLGVSKTASSREIRQAFKKLALKLHPDKNPNNPNAHGDFLKINRAYEVLKDEDLRKKYDKYGEKGLEDNQGGQYESWSYYRYDFGIYDDDPEIITLERREFDAAVNSGELWFVNFYSPGCSHCHDLAPTWREFAKEVDGLLRIGAVNCGDDRMLCRMKGVNSYPSLFIFRSGMAAVKYNGDRSKESLVAFAMQHVRSTVTELSTGNFVNAIETAFAAGVGWLITFCSKGEDCLTSQTRLRLSGMLDGLVNVGWVDCDAQDSLCKSLDTTASTTAYFPPGATLNDREKSSVLFLNSLDAKEIYMEIIHNLPDFELLSANQLEDRLAHHRWLVFFHFGKNENANDPELKKLKTLLKNEHIQVGRFDCSSAPGICSDLYVFQPCLAVFKGQGTKEYEIHHGKKILYDILAFAKESVNSHVTTLGPQNFPASDKEPWLVDFFAPWCPPCRALLPELRKASTLLYGQLKVGTLDCTIHEGLCNMYNIQAYPTTVVFNQSSIHEYEGHHSAEQILEFIEDLRNPSVVSLTPSTFNELVKQRKHDEVWMVDFYSPWCHPCQVLMPEWKRMARTLTGLINVGSVDCQQYHSFCTQENVQRYPEIRFYPQKSSKAYQYHSYNGWNRDAYSLRSWGLGFLPQASIDLTPQTFNEKVLQGKTHWVVDFYAPWCGPCQNFAPEFELLARMIKGKVRAGKVDCQAYPQTCQKAGIKAYPSVKLYQYERAKKSIWEEQINSRDAKTIAALIYGKLETLQSQVKRNKDEL
7 | binds | Necap2 (protein, UniProt Q9D1J1 1-266) MEESEYESVLCVKPEVHVYRIPPRATNRGYRASEWQLDQPSWSGRLRITAKGKVAYIKLEDRTSGELFAQAPVDQFPGTAVESVTDSSRYFVIRIEDGNGRRAFIGLGFGDRGDAFDFNVALQDHFKWVKQQCEFAKQAQNPDEGPKLDLGFKDGQTIKINIANMRKKEGAAGTPRARPTSAGGLSLLPPPPGGKSSTVIPPSGEQLSVGGSLVQPAVVSGSGGATELWPQSKPAAAATADIWGDFTKSTGSPSSQSQPGTGWVQF

biological target: HA-tagged gp96 (UniProt P08113); assay: as above; remark: another data set of the same source

Row | binding | Molecule
8 | binds | CTSD (from UniProt P18242)
9 | binds | TUBB2C (from UniProt P68372 1-445)
10 | binds | Hnrnpa2b1 (from UniProt O88569 1-353)
11 | binds | HTR3A (from UniProt P23979 24-489)
12 | binds | Gstp1 (from UniProt P19157 1-210)
13 | binds | Tubulin α4a (TUBA4A) (from UniProt P68368 1-448)
14 | binds | Npm1 (from UniProt Q61937 1-292)
15 | binds | Adprh (from UniProt P54923 1-362)
16 | binds | Hspd1 (from UniProt P63038 27-573)
17 | binds | Hspa5 (from UniProt P20029 20-655)
18 | binds | Hnrnpk (from UniProt P61979 1-463)

Results are given in words; binding and its absence hold for the method and conditions named. In cells and extracts the contact can be indirect. These calls come from enrichment with a bait or labelling near it, and not all partners need be listed.
